The other results are listed elsewhere or left out.
What was measured:
Test in all cases: log2 fold change, soluble protein after heating vs DMSO (PISA); higher = thermal stabilisation; K562 cells, 10 uM, 30 min; active = over 0.2 and 3.5 SD of the protein, either way, in both replicates (recomputed)
ZNF787 = ZNF787 (UniProt Q6DD87)
Outline: (§1)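 K562 cells at 2×10^6 cells/mL were treated with 10 μM compound for 30 min. Aliquots were heated for 3 min across 48°C-58°C, pooled, and extracted in PBS with 0.5% NP-40 at 4°C; soluble protein was the supernatant after 21,000xg for 90 min. Soluble protein was quantified by TMTpro 16plex LC-MS/MS with channel sums equalised, and reported as log2 fold change in thermal stability against DMSO controls, with values from duplicates.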

Chains of the proteins cited; added tags and fusions are not shown. Lines headed by an entry give the natural chain unless they say otherwise; changes in a name come on top.
UniProt Q96NB3: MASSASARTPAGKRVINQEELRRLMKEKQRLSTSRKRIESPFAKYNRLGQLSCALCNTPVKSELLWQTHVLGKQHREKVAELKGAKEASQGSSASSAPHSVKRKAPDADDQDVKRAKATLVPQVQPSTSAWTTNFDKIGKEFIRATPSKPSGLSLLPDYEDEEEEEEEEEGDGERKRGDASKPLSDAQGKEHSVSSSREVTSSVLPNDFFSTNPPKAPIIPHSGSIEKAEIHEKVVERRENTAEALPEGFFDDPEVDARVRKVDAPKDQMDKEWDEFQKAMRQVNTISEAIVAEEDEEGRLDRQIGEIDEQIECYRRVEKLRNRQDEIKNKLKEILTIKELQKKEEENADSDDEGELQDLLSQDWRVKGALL
UniProt O43257, whole entry, looked up: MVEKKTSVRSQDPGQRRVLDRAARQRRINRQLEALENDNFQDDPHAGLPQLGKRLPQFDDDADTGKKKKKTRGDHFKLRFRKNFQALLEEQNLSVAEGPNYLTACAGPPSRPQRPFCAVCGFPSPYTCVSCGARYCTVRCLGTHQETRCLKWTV
UniProt Q15649: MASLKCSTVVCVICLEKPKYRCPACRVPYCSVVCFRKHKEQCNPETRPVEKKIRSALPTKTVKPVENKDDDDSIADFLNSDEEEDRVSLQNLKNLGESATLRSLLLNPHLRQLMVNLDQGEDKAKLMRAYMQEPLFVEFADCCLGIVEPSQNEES
UniProt Q9NWK9: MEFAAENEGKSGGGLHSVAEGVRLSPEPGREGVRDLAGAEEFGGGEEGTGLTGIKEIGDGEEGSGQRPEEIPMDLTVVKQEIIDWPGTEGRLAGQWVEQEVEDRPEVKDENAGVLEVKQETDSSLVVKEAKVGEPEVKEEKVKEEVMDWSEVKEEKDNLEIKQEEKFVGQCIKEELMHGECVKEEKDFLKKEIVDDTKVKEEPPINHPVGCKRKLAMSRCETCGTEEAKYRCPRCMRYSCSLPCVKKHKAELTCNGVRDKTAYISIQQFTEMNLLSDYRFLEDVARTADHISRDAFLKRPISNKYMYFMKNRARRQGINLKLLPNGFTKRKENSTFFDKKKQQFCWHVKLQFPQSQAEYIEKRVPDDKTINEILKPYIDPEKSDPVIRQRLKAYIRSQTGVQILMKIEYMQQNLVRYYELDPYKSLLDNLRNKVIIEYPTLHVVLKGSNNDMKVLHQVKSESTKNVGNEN
UniProt Q9P1U0, whole entry, looked up: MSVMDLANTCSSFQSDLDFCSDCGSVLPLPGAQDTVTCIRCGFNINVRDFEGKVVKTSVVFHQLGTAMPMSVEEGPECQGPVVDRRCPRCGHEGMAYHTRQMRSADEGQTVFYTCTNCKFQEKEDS
UniProt O60232: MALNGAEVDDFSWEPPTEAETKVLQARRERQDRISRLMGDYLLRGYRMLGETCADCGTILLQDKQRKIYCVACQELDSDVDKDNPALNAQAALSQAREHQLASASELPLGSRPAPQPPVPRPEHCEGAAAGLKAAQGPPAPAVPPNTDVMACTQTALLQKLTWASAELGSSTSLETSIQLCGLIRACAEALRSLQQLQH
UniProt Q8ND25: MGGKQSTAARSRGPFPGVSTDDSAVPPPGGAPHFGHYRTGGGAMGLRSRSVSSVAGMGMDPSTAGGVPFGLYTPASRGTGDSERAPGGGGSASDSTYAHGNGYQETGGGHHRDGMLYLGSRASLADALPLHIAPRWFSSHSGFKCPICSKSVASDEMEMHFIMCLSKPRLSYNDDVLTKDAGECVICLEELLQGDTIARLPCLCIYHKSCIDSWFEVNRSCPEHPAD
UniProt Q8NHG8: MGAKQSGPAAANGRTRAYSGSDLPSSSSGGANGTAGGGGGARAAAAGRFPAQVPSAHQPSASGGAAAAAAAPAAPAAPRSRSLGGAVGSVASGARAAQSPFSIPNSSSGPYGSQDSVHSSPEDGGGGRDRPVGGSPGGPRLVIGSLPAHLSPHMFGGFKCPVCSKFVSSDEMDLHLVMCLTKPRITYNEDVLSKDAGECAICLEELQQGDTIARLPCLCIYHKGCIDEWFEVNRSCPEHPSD
UniProt O75312: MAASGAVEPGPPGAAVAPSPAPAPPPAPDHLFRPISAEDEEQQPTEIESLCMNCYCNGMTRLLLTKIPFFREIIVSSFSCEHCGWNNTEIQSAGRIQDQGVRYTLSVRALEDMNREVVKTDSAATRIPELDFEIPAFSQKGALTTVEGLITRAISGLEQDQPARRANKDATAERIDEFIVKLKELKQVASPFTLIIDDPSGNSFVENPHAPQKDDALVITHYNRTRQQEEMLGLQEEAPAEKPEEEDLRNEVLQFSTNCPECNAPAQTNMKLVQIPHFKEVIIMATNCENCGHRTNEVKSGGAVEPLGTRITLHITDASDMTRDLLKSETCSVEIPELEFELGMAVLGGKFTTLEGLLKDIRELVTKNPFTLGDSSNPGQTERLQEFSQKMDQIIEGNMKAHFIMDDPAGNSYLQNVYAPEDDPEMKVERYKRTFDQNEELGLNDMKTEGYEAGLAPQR
UniProt O95218: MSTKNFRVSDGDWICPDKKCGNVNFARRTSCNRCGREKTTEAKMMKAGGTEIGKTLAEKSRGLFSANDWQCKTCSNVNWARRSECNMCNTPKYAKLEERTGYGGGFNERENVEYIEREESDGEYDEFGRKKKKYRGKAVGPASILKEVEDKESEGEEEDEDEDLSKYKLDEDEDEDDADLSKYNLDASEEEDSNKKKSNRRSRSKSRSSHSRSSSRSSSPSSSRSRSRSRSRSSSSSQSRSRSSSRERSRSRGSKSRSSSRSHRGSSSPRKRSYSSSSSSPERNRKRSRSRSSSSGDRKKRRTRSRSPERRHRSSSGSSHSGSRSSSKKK
UniProt Q19AV6: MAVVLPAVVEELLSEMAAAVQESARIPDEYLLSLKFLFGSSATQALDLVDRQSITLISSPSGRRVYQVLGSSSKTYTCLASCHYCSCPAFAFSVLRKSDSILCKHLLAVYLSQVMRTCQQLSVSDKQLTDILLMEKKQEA
UniProt O43264: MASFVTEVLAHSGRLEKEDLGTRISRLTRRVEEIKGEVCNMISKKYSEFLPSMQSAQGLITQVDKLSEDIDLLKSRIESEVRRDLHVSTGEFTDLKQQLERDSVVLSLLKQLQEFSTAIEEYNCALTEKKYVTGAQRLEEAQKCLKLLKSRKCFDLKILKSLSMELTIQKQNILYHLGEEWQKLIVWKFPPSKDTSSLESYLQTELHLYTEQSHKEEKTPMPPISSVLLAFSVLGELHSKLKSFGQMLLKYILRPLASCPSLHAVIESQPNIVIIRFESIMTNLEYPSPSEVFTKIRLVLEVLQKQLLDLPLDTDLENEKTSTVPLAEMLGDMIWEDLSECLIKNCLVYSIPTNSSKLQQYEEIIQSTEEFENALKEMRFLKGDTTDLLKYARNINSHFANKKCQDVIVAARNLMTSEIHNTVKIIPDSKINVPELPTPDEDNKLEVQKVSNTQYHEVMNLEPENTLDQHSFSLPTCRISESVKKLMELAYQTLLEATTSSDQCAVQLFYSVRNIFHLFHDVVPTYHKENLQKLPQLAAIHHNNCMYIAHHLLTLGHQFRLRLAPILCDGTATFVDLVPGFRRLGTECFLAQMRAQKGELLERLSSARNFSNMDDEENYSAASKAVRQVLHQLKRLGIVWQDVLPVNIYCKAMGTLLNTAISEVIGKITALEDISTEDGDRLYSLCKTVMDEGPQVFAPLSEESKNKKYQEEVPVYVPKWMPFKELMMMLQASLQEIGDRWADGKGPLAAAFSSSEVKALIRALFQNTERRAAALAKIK
UniProt Q9UHR6: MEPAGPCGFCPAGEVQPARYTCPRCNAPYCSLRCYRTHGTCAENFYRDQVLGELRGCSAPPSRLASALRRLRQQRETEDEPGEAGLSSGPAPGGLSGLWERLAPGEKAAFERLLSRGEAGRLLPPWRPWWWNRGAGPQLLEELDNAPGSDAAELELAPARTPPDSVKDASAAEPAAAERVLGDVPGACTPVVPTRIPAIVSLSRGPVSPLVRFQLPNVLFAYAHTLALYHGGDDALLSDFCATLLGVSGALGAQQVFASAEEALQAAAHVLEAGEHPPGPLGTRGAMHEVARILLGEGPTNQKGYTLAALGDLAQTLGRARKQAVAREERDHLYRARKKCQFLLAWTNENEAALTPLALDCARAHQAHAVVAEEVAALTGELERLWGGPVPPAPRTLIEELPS
UniProt Q9P2E3: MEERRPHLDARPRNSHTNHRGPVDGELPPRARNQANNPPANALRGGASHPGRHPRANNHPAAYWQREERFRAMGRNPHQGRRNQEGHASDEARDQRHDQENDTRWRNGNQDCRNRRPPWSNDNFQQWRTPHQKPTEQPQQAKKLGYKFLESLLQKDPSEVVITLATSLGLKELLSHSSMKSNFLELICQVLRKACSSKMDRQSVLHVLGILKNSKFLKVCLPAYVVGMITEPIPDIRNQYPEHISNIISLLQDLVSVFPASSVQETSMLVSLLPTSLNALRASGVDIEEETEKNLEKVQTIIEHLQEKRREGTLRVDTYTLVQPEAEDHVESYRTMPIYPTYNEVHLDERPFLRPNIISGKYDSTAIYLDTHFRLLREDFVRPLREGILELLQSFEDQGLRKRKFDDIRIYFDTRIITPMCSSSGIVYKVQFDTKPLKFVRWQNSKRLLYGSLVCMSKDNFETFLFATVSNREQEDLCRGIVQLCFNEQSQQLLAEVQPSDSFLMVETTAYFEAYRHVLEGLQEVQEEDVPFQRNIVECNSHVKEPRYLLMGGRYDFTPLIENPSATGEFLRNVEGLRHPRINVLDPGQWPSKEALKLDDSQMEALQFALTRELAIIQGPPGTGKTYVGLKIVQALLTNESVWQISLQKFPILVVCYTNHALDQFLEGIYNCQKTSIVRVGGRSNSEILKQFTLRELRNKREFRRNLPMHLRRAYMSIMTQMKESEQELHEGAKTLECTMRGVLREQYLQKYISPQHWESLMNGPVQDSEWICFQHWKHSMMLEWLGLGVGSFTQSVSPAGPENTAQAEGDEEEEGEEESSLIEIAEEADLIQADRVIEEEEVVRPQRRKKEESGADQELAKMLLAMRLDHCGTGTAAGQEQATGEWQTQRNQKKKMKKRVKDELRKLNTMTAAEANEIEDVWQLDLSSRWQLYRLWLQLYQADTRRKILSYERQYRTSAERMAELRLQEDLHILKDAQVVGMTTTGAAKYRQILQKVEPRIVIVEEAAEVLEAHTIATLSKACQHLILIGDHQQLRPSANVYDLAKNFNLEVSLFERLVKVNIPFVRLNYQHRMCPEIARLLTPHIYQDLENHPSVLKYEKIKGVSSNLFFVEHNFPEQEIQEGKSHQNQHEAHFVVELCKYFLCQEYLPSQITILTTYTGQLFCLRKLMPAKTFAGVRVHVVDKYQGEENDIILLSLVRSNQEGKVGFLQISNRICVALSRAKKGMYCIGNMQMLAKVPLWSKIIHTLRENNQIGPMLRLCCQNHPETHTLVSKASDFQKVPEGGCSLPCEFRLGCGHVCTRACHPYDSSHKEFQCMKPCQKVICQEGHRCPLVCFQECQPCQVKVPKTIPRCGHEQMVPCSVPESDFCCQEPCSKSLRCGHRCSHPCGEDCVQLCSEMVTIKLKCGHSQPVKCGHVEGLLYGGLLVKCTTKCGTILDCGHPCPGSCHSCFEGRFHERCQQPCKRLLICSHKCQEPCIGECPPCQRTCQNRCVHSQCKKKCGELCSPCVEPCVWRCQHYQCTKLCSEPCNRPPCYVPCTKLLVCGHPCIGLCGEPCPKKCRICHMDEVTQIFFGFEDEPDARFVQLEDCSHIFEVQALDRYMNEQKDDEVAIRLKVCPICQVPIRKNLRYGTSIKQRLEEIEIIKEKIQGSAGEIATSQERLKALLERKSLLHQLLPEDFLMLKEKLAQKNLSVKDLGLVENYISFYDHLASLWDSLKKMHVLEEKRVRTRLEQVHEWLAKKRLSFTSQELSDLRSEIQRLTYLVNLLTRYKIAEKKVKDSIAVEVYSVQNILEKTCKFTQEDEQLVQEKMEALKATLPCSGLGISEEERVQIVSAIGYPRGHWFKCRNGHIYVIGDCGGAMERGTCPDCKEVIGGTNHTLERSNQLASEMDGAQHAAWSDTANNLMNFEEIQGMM
UniProt Q16670: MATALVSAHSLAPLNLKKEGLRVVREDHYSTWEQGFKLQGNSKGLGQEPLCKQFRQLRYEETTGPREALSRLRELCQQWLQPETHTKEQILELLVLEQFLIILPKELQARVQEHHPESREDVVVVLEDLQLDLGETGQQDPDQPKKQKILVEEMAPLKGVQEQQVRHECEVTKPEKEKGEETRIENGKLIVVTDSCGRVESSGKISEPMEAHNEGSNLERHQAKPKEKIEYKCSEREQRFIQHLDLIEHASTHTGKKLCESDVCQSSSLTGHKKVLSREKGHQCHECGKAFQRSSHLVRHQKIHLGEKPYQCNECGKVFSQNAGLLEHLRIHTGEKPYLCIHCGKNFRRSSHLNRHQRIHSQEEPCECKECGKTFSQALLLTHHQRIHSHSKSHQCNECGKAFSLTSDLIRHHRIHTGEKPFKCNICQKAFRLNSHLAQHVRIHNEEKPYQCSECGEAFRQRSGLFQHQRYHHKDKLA

ZNF830 = ZNF830 (UniProt Q96NB3)
Outline: as §1

ZNF852 = ZNF852 (UniProt Q6ZMS4)
Outline: as §1

ZNHIT1 = ZNHIT1 (UniProt O43257)
Outline: as §1

ZNHIT3 = ZNHIT3 (UniProt Q15649)
Outline: as §1

ZNHIT6 = ZNHIT6 (UniProt Q9NWK9)
Outline: as §1

ZNRD1 = ZNRD1 (UniProt Q9P1U0)
Outline: as §1

ZNRD2 [1] = molecular target: ZNRD2 (UniProt G3V1B8)
Outline: as §1

ZNRD2 [2] = molecular target: ZNRD2 (UniProt O60232)
Outline: as §1

ZNRF1 isoform 2 = ZNRF1 isoform 2 (UniProt Q8ND25)
Outline: as §1

ZNRF2 = ZNRF2 (UniProt Q8NHG8)
Outline: as §1

ZPR1 = ZPR1 (UniProt O75312)
Outline: as §1

ZRANB2 = ZRANB2 (UniProt O95218)
Outline: as §1

ZSWIM7 = ZSWIM7 (UniProt Q19AV6)
Outline: as §1

ZW10 = ZW10 (UniProt O43264)
Outline: as §1

ZNHIT2 = ZNHIT2 (UniProt Q9UHR6)
Outline: as §1

ZNFX1 = ZNFX1 (UniProt Q9P2E3)
Outline: as §1

ZSCAN26 = ZSCAN26 (UniProt Q16670)
Outline: as §1

Row | Structure (SMILES) | log2 fold change (ZNF787) | log2 fold change (ZNF830) | log2 fold change (ZNF852) | log2 fold change (ZNHIT1) | log2 fold change (ZNHIT3) | log2 fold change (ZNHIT6) | log2 fold change (ZNRD1) | log2 fold change (ZNRD2 [1]) | log2 fold change (ZNRD2 [2]) | log2 fold change (ZNRF1 isoform 2) | log2 fold change (ZNRF2) | log2 fold change (ZPR1) | log2 fold change (ZRANB2) | log2 fold change (ZSWIM7) | log2 fold change (ZW10) | log2 fold change (ZNHIT2) | log2 fold change (ZNFX1) | log2 fold change (ZSCAN26)
1 | CCN(CC)Cc1ccc2cc(COC(=O)Nc3ccc(C(=O)NO)cc3)ccc2c1 [givinostat] | inactive: 0.047 | inactive: -0.031 | inactive: 0.02 | inactive: 0.127 | inactive: -0.031 | inactive: 0.071 | inactive: 0.013 | inactive: 0.079 | inactive: -0.068 | inactive: -0.071 | inactive: 0.049 | inactive: 0.009 | inactive: -0.029 | inactive: -0.061 | inactive: 0.096 | – | – | –
2 | CC(=O)c1cnc2ccc(-c3cc(Cl)c(O)c(Cl)c3)nc2c1N[C@H]1CC[C@H](CN(C)C)CC1 | inactive: 0.116 | inactive: -0.029 | – | inactive: -0.04 | inactive: 0.069 | inactive: -0.017 | inactive: 0.076 | inactive: 0.002 | inactive: -0.083 | inactive: -0.28 | inactive: 0 | inactive: 0.005 | inactive: 0.017 | – | inactive: 0.011 | – | – | –
3 | Cc1ccc(NC(=O)c2cccc(N(C)C)c2)cc1NC(=O)c1ccc(O)cc1 | inactive: -0.003 | inactive: 0.011 | inactive: 0.139 | – | inactive: 0.008 | – | inactive: 0.033 | inactive: -0.175 | inactive: -0.093 | inactive: -0.071 | inactive: 0.024 | inactive: -0.002 | inactive: -0.012 | – | inactive: -0.043 | inactive: 0.054 | – | –
4 | C/C(=N\NC(=O)c1cccc(S(=O)(=O)N2CCOCC2)c1)c1cc(Cl)ccc1O | inactive: -0.118 | inactive: 0.048 | – | inactive: -0.164 | inactive: 0.026 | inactive: -0.102 | inactive: -0.157 | inactive: -0.25 | inactive: 0.091 | inactive: 0.089 | inactive: 0.055 | inactive: 0.001 | inactive: -0.067 | – | inactive: 0.075 | – | – | –
5 | COc1cc(C(=O)O)ccc1NC(=O)[C@@H]1N[C@@H](CC(C)(C)C)[C@](C#N)(c2ccc(Cl)cc2F)[C@H]1c1cccc(Cl)c1F [idasanutlin] | inactive: 0.164 | inactive: -0.019 | – | inactive: 0.007 | inactive: -0.01 | inactive: 0.08 | inactive: 0.076 | inactive: -0.013 | inactive: -0.005 | inactive: 0.028 | inactive: -0.05 | inactive: -0.016 | inactive: 0.024 | – | inactive: -0.035 | – | – | –
6 | Oc1cc(-c2nc(-c3ccccc3)[nH]c2-c2ccncc2)ccc1Cl | inactive: 0.022 | inactive: -0.019 | inactive: -0.134 | – | inactive: -0.252 | – | inactive: -0.222 | inactive: 0.068 | inactive: 0.139 | inactive: -0.151 | inactive: -0.018 | inactive: 0 | inactive: -0.073 | – | inactive: -0.034 | inactive: -0.049 | – | –
7 | COC(=O)[C@H](CCSC)NC(=O)c1ccc(NC[C@@H](N)CS)cc1-c1ccccc1 | inactive: 0.066 | inactive: 0.04 | – | – | inactive: 0.099 | inactive: 0.077 | inactive: -0.157 | – | inactive: 0.05 | inactive: 0.069 | inactive: -0.003 | inactive: 0.009 | inactive: 0.05 | inactive: -0.081 | inactive: -0.079 | inactive: -0.155 | inactive: 0.01 | –
8 | Cc1ccc(C(=O)N(CCCN)[C@@H](c2nc3cc(Cl)ccc3c(=O)n2Cc2ccccc2)C(C)C)cc1 [ispinesib] | inactive: -0.058 | inactive: 0.018 | inactive: -0.158 | – | inactive: -0.325 | – | inactive: 0.065 | inactive: 0.172 | inactive: 0.216 | inactive: -0.008 | inactive: 0.017 | inactive: 0.075 | inactive: 0.005 | – | inactive: -0.179 | inactive: -0.182 | – | –
9 | CC[C@@H]1C(=O)N(C)c2cnc(Nc3ccc(C(=O)N[C@H]4CC[C@H](N5CCN(CC6CC6)CC5)CC4)cc3OC)nc2N1C(C)C [volasertib] | inactive: 0.124 | inactive: 0.016 | inactive: 0.087 | – | inactive: -0.023 | inactive: 0.051 | inactive: 0.146 | – | inactive: 0.04 | inactive: 0.063 | inactive: 0.011 | inactive: -0.069 | inactive: 0.1 | – | active: -0.399 | inactive: -0.24 | – | inactive: 0.304
10 | Cn1cc(-c2ccc3nnc(C(F)(F)c4ccc5ncccc5c4)n3n2)cn1 | inactive: -0.023 | inactive: -0.002 | inactive: 0.017 | – | inactive: 0.064 | – | inactive: -0.014 | inactive: 0.259 | inactive: 0.136 | inactive: -0.166 | inactive: -0.007 | inactive: 0.036 | inactive: 0.036 | – | inactive: -0.069 | inactive: -0.017 | – | –
11 | CCCS(=O)(=O)Nc1ccc(F)c(C(=O)c2c[nH]c3ncc(-c4ccc(Cl)cc4)cc23)c1F [vemurafenib] | inactive: -0.056 | inactive: 0.022 | – | – | inactive: -0.022 | inactive: 0.276 | inactive: -0.196 | – | inactive: 0.042 | inactive: -0.087 | inactive: 0.018 | inactive: 0.026 | inactive: -0.014 | inactive: -0.205 | inactive: 0.025 | inactive: 0.03 | inactive: -0.145 | –
12 | O=C1NC(=NCc2cccs2)S/C1=C\c1ccc2ncccc2c1 | inactive: -0.174 | inactive: -0.031 | – | inactive: 0.185 | inactive: 0.002 | inactive: 0.144 | inactive: -0.179 | inactive: 0.152 | inactive: 0.125 | inactive: 0.145 | inactive: 0.004 | inactive: -0.012 | inactive: -0.059 | – | inactive: -0.021 | – | – | –
13 | Cn1cncc1[C@@](N)(c1ccc(Cl)cc1)c1ccc2c(c1)c(-c1cccc(Cl)c1)cc(=O)n2C [tipifarnib] | inactive: 0.063 | inactive: -0.02 | inactive: 0.033 | – | inactive: 0.072 | inactive: -0.105 | inactive: 0.005 | – | inactive: 0.002 | inactive: 0.038 | inactive: -0.025 | inactive: -0.005 | inactive: -0.001 | – | inactive: -0.087 | inactive: 0.016 | – | inactive: 0.043
14 | CCn1c(C(=O)N(C2CC2)C2CC2)cc2c3c(ncn3C)c(Nc3cc(C)n(C)n3)nc21 | inactive: -0.044 | inactive: 0.018 | inactive: -0.063 | inactive: 0.033 | inactive: 0.025 | inactive: -0.047 | inactive: 0.018 | inactive: -0.096 | inactive: -0.004 | inactive: 0.047 | inactive: 0.042 | inactive: -0.001 | – | inactive: 0.131 | – | – | – | –
15 | CCCS(=O)(=O)Nc1ccc(F)c(C(=O)c2c[nH]c3ncc(Cl)cc23)c1F | inactive: -0.022 | inactive: 0.068 | inactive: -0.121 | – | inactive: -0.123 | inactive: 0.001 | inactive: 0.014 | – | inactive: -0.06 | inactive: -0.087 | inactive: -0.054 | inactive: 0.016 | inactive: -0.02 | – | inactive: 0.053 | inactive: 0.091 | – | inactive: -0.107

Among those listed so far, these have two or more sulfur atoms.
Row | Structure (SMILES) | log2 fold change (ZNF787) | log2 fold change (ZNF830) | log2 fold change (ZNF852) | log2 fold change (ZNHIT1) | log2 fold change (ZNHIT3) | log2 fold change (ZNHIT6) | log2 fold change (ZNRD1) | log2 fold change (ZNRD2 [1]) | log2 fold change (ZNRD2 [2]) | log2 fold change (ZNRF1 isoform 2) | log2 fold change (ZNRF2) | log2 fold change (ZPR1) | log2 fold change (ZRANB2) | log2 fold change (ZSWIM7) | log2 fold change (ZW10) | log2 fold change (ZNHIT2) | log2 fold change (ZNFX1) | log2 fold change (ZSCAN26)
7 | COC(=O)[C@H](CCSC)NC(=O)c1ccc(NC[C@@H](N)CS)cc1-c1ccccc1 | inactive: 0.066 | inactive: 0.04 | – | – | inactive: 0.099 | inactive: 0.077 | inactive: -0.157 | – | inactive: 0.05 | inactive: 0.069 | inactive: -0.003 | inactive: 0.009 | inactive: 0.05 | inactive: -0.081 | inactive: -0.079 | inactive: -0.155 | inactive: 0.01 | –
12 | O=C1NC(=NCc2cccs2)S/C1=C\c1ccc2ncccc2c1 | inactive: -0.174 | inactive: -0.031 | – | inactive: 0.185 | inactive: 0.002 | inactive: 0.144 | inactive: -0.179 | inactive: 0.152 | inactive: 0.125 | inactive: 0.145 | inactive: 0.004 | inactive: -0.012 | inactive: -0.059 | – | inactive: -0.021 | – | – | –

— the supplement of paper PMC10849652
